Reference: PubChem BioAssay AID540276 (National Center for Advancing Translational Sciences (NCATS), 2011)
The whole screen tested about 300,000 compounds, of which about 5,400 (1.8%) were called active. Inconclusive means that the source gave no clear call. Such entries were picked first, then a sample of the others. Calls follow the shape of the full dose curve; tested in HEK293 cells. Where the call is inconclusive, the potency comes from a doubtful curve fit.

Test: qHTS for inhibitors of binding or entry into cells for Marburg Virus
Details: Marburg virus pseudotyped entry inhibition, cell reporter; activity change, negative = inhibition: at 37.8 µM (top of the series) unless noted
% is scaled to controls: 0 for no effect and ±100 for the full control effect; potency is read from the fitted curve at half-maximal effect.

| SMILES | Potency | activity change, negative = inhibition |
| --- | --- | --- |
| COc1ccc(Br)cc1/C=N/NC(=O)CNC(=O)/C=C/c1ccccc1 | inconclusive: 35.5 µM [inhibitor, single point] | – |
| O=[N+]([O-])c1ccc2nc(NS(=O)(=O)c3ccccc3[N+](=O)[O-])sc2c1 | inconclusive: 14.1 µM [activator, single point] | – |
| Cc1ccc(-n2nc(CO)c(C(=O)NC(C)CCCc3ccccc3)n2)cc1 (stereo not given) | – | inactive: -1.87% [at 46.1 µM] |
| Cc1ccc(NC(=O)c2ccc(C)c(S(=O)(=O)N3CCCCC3)c2)nc1 | inconclusive: 35.5 µM [inhibitor, single point] | – |
| COC(=O)C1CCN(C(=O)/C=C/c2ccc(OC)cc2)CC1 | – | inactive: -2.58% |
| Cc1ccccc1NC(=O)CSc1nc2ccc(NC(=O)c3cccs3)cc2s1 | inconclusive: 22.4 µM [inhibitor, single point] | – |
| CCc1ccc(NC(=O)CCn2c(=O)c3cccn3c3ccccc32)cc1 | inconclusive: 17.8 µM [inhibitor, single point] | – |
| CC(CN(C)Cc1ccccc1)OC(=O)c1ccccc1F (stereo not given) | – | inactive: -1.16% |
| Oc1[nH]c2ccccc2c1N=Nc1ccccc1 | – | inactive: 17.9% [at 46.1 µM] |
| CC(NC(=O)c1noc2c1CCCC2)c1ccccc1 (stereo not given) | inconclusive: 1.41 µM [activator, full curve] | – |
| O=C(NC1CCN(Cc2ccccc2)C1)c1cccc(S(=O)(=O)N2CCOCC2)c1 (stereo not given) | – | inactive: -19.6% |
| COc1ccccc1CNC(=O)c1cc2sccc2n1Cc1ccc(Cl)cc1 | – | inactive: -17.1% [at 46.1 µM] |
| CC1=NN(C(C#N)c2ccc(F)cc2)C(C)(C)C1 (stereo not given) | – | inactive: 12.4% |
| C=C(C)COc1ccc(-c2nc(N)nc(C)c2-c2ccc(OC)cc2)c(O)c1 | inconclusive: 35.5 µM [activator, single point] | – |
| CC(C)(C)c1ccc(Oc2ccc(NC(=O)C3CC=CCC3C(=O)O)cc2)cc1 (stereo not given) | inconclusive: 10 µM [inhibitor, partial curve, poor fit] | – |
| COC(=O)c1ccc(CN2C(=O)NC3(CCC(C)CC3)C2=O)cc1 (stereo not given) | inconclusive: 5.62 µM [activator, single point] | – |
| O=C(NCc1ccccn1)C(=O)Nc1cccc2ccccc12 | inconclusive: 3.55 µM [activator, partial curve, poor fit] | – |
| CCOc1cc(C2CC(=O)NC3=C2C(=O)C(C(=O)OC)C(C)C3)cc(Cl)c1O (stereo not given) | inconclusive: 3.55 µM [activator, single point] | – |
| CCOC(=O)c1[nH]c(CN2CCN(c3ccc(OC)cc3)CC2)c(C(=O)OCC)c1C | inconclusive: 10 µM [inhibitor, partial curve, poor fit] | – |
| CCOc1cc(/C=N/NC(=O)c2ccncc2)ccc1OS(C)(=O)=O | inconclusive: 0.0291 µM [inhibitor, full curve, poor fit] | – |

As entered above:
C=C(C)COc1ccc(-c2nc(N)nc(C)c2-c2ccc(OC)cc2)c(O)c1 – Potency: inconclusive: 35.5 µM [activator, single point]
CCOc1cc(/C=N/NC(=O)c2ccncc2)ccc1OS(C)(=O)=O – Potency: inconclusive: 0.0291 µM [inhibitor, full curve, poor fit]
